Results from patent US20100136660A1 (published 2010).
No constants are given. Whether binding was seen depends on the method and setting. Some entries that bind do so weakly or less than the wild type.

Protein sequences, listed by entry. Tags and fused reporters are not part of them. Residues count along the entry.
UniProt P00703, residues 19-147: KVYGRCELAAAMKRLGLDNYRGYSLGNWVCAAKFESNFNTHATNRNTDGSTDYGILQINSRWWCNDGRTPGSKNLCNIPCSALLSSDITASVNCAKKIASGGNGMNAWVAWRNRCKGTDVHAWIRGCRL

B1: human scFv VH14.1/VL14.1 (lysozyme binder from unimmunized library) (scFv, V domains shown)
VH: QVQLQESGPGLVKPSETLSLVCTVSGGSLSFSYWGWIRQPPGKGLEWIGYISHRGTDYNSSLQSRVTISADTSKNQFSLKLSSVTAADTAVYYCARSFSNSFFFGYWGQGT
VL: SSELTQDPAVSVAFGQTVRITCQGDSLRSSYASWYQQKPGQAPLLVIYGENSRPSGIPDRFSGSSSGNTASLTITGAQAEDEADYYCNSRDSRGTHLEVFGG
notes: scFv on phage from pHEN1
B2: human scFv VH13.1/VL13.1 (lysozyme binder from unimmunized library) (scFv, V domains shown)
VH: QVQLVQSGAEVKKPGQSLMISCQGSGYSFSNYWIGWVRQMPGKGLEWMGIIYPGDSDTRYSPSFQGQVTISADKSISTAYLHWSSLKASDTALYYCARLVGGTPAYWGQGT
VL: HVILTQPASVSGSPGQSITISCTGSSRDVGGYNYVSWYQHHPGKAPKLLISEVTNRPSGVSNRFSGSKSGNTASLTISGLQAEDEADYFCASYTSSKTYVFGG
notes: scFv on phage from pHEN1

Biological target: turkey egg-white lysozyme (turkey) (UniProt P00703)
Experiment: phage ELISA, 3 mg/ml turkey egg white lysozyme coating

Row | Binder | binding
1 | B1 | binds
2 | B2 | binds
